PubChem BioAssay AID504784, Drosophila RNAi Screening Center | 2011

- Purpose: 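Fly genes whose silencing alters how much lipid cells keep in droplets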 (primary screen)
- Cells: Drosophila Kc167 embryonic cells
- Knock-down reagent: long dsRNA against Drosophila genes, about 250 ng dsRNA per well
- Timing: 4 days
- Treatment: cells fed 400 µM oleic acid bound to BSA
- Measured: 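Microscope images give a droplet-to-nucleus area ratio, taken as log and converted to a screen-wide B-score; higher values mean greater lipid storage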
- Scale: droplet/nuclear area B-score: higher = more stored lipid (overstorage)
The deposit covers about 17,000 reagents; below is a random part of those that have a named target and a result. 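Each column is one replicate's B-score; the combined score over replicates was not deposited, so single values may mislead.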 Names joined by + are all predicted targets of the reagent.

no.	predicted target	amplicon	droplet/nuclear area B-score, replicate 1	droplet/nuclear area B-score, replicate 2	droplet/nuclear area B-score, replicate 3
1	Amacr (Alpha-methylacyl-CoA racemase)	DRSC03198	-0.632	1.33	
2	Snmp1 (Sensory neuron membrane protein 1)	DRSC16168	-0.175	-0.52	
3	if (inflated)	DRSC20341	-0.035	0.993	
4	CG4363	DRSC04465	0.0853	-0.181	
5	Mkrn1 (Makorin 1)	DRSC11870	-0.665	-0.288	1.67
6	Targ1 (Terminal ADP-ribose protein glycohydrolase 1)	DRSC11616	0.404	-1.08	
7	Ccp84Af	DRSC12591	1.21	1.17	
8	cyp33 (cyclophilin-33)	DRSC07600	0.124	1.15	
9	CG15617	DRSC06570	-0.789	-0.43	
10	tej (tejas)	DRSC07219	-2.53	0.00238	
11	CG11381	DRSC17780	-1.01	0.827	
12	Inos (myo-inositol-1-phosphate synthase)	DRSC07655	0.0425	-0.0559	
13	Tsf2 (Transferrin 2)	DRSC09751	-0.329	-1.1	
14	CG10948	DRSC09806	-1.71	0.208	
15	CG4098	DRSC10399	-0.834	-0.485	
16	EMC7 (ER membrane protein complex subunit 7)	DRSC07162	-1.45	1.23	
17	CG1774	DRSC15258	-0.069		
18	CG2162	DRSC08557	1.22	1.74	
19	dj-1beta	DRSC14599	-1.2	1.12	
20	Scp2 (Sarcoplasmic calcium-binding protein 2)	DRSC13166	0.0382	1.14	
21	Scp2 (Sarcoplasmic calcium-binding protein 2)	DRSC16854	0.0731	-2.05	
22	Vha14-1 (Vacuolar H[+] ATPase 14kD subunit 1)	DRSC07571	-0.082	-0.832	
23	Acp63F (Accessory gland protein 63F)	DRSC08137	0.351	0.398	
24	udd (under-developed)	DRSC06720	-0.629	0.621	
25	pHCl-1 (pH-sensitive chloride channel 1)	DRSC09991	0.401	0.226	
26	pHCl-1 (pH-sensitive chloride channel 1)	DRSC10589	-0.446	-1.23	
27	CG4041	DRSC18339	1.06	1.53	
28	SNF4Agamma (SNF4/AMP-activated protein kinase gamma subunit)	DRSC13461	0.564	0.846	
29	SNF4Agamma (SNF4/AMP-activated protein kinase gamma subunit)	DRSC13463	-1.84	1.24	
30	SNF4Agamma (SNF4/AMP-activated protein kinase gamma subunit)	DRSC15879	-1.62	-2.36	
31	SNF4Agamma (SNF4/AMP-activated protein kinase gamma subunit)	DRSC16847	1.98	0.307	
32	SERCA (Sarco/endoplasmic reticulum Ca(2+)-ATPase)	DRSC04600	-0.242	0.0951	
33	klg (klingon)	DRSC13591	-0.0353	-0.481	
34	klg (klingon)	DRSC16978	1.71	-0.223	
35	stl (stall)	DRSC04396	-0.326	-0.816	
36	hfp (half pint)	DRSC08731	0.309	1.11	
37	hfp (half pint)	DRSC08732	0.0295	-0.686	
38	hfp (half pint)	DRSC22408	0.673	-0.0954	
39	CG17026	DRSC10237	-1.02	-0.651	-2.02
40	Atg2 (Autophagy-related 2)	DRSC08273	0.00576	2.46	
41	Coprox (Coproporphyrinogen oxidase)	DRSC01996	0.067	0.208	-0.435
42	eIF3i (eukaryotic translation initiation factor 3 subunit i)	DRSC03464	4.3	4.3	
43	CG11961	DRSC06099	0.429	-0.699	
44	CG12998	DRSC19518	-0.373	-1.71	
45	CG17224	DRSC00489	0.393	-0.00476	
46	Ubc7 (Ubiquitin conjugating enzyme 7)	DRSC20299	2.29	1.13	
47	CG14864	DRSC14987	4.7	-0.509	
48	Pomp	DRSC03201	0.0017	-2.24	
49	CG3702	DRSC00628	0.136	-0.349	
50	oys (oysgedart)	DRSC05203	-0.423	-0.818	
51	oys (oysgedart)	DRSC06751	0.318	0.18	
52	Rab14	DRSC03403	-0.564	0.0319	
53	Gr94a (Gustatory receptor 94a)	DRSC13597	-1.78	-0.0257	
54	CG11106	DRSC19381	0.0349	-2.39	0.359
55	CG30001	DRSC05191	0.623	1.08	
56	CG10177	DRSC14201	0.669	-0.437	
57	CG6184	DRSC15986	0.209	-1.84	
58	LysP (Lysozyme P)	DRSC08676	0.474	2.02	
59	CG3548	DRSC04387	-0.903	0.313	
60	fs(1)h (female sterile (1) homeotic)	DRSC18778	-0.154	-1.66	-0.262
61	CG4213	DRSC00641	-0.148	0.0926	
62	CG7606	DRSC16268	-0.877	-0.211	
63	gprs	DRSC06761	-0.712	-0.0162	
64	CG12589	DRSC12215	2.52	-0.00902	
65	Pburs (Partner of Bursicon)	DRSC02483	1.96	0.72	
66	HERC2 (HECT and RLD domain containing protein 2)	DRSC20566	-1.3	0.255	
67	gzl (godzilla E3 ubiquitin protein ligase)	DRSC12517	-1.17	7.38	
68	CG6607	DRSC16073	-1.53	-0.875	
69	flip (flippy)	DRSC12326	-0.356	-0.663	
70	CG31835 + CG42585	DRSC01412	0.0131	-0.958	
71	CG14401	DRSC02385	0.249	-0.147	
72	CG14401	DRSC21710	-1.38	1.67	
73	CG12725	DRSC19501	-0.00324	-0.166	0.431
74	mus301 (mutagen-sensitive 301)	DRSC10939	0.76	-0.00367	
75	Naa15-16 (N(alpha)-acetyltransferase 15/16)	DRSC19440	-1.07	0.298	-1.36
76	Naa15-16 (N(alpha)-acetyltransferase 15/16)	DRSC22846	0.926	0.588	
77	CG7408	DRSC10841	0.00692	-0.968	
78	mRpS7 (mitochondrial ribosomal protein S7)	DRSC02814	-1.6	-2.05	
79	CG34386	DRSC06467	-0.188	-0.124	
80	CG34386	DRSC06468	-0.797	-1.57	
81	CG34386	DRSC23234	1.47	0.0529	
82	Ir11a (Ionotropic receptor 11a)	DRSC19699	-1.66	0.387	-0.991
83	lbl (ladybird late)	DRSC16986	1.46	-0.164	

Targets listed so far whose target name begins with G or g:
predicted target	amplicon	droplet/nuclear area B-score, replicate 1	droplet/nuclear area B-score, replicate 2	droplet/nuclear area B-score, replicate 3
Gr94a (Gustatory receptor 94a)	DRSC13597	-1.78	-0.0257	
gprs	DRSC06761	-0.712	-0.0162	
gzl (godzilla E3 ubiquitin protein ligase)	DRSC12517	-1.17	7.38	
